Measurements taken from the supplement of paper PMC10849652.
This is one part of the list.

The chains behind the UniProt entries cited, without tags or fusion partners. Where a name states a change or a piece, a line headed by the entry shows the natural chain unless it says otherwise.
UniProt P61020: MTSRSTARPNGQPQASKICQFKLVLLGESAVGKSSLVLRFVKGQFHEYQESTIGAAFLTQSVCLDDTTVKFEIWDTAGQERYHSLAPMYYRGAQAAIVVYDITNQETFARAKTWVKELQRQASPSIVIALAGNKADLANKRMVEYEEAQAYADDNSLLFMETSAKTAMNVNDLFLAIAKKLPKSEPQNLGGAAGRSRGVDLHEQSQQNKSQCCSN
UniProt P61106, whole entry, looked up: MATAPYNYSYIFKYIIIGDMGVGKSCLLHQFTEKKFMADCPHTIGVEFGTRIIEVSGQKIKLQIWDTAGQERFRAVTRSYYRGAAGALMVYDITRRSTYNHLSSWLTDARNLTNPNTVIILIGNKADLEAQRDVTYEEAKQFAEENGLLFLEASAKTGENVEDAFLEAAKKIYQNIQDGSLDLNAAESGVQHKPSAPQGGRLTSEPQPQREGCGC
UniProt Q92696: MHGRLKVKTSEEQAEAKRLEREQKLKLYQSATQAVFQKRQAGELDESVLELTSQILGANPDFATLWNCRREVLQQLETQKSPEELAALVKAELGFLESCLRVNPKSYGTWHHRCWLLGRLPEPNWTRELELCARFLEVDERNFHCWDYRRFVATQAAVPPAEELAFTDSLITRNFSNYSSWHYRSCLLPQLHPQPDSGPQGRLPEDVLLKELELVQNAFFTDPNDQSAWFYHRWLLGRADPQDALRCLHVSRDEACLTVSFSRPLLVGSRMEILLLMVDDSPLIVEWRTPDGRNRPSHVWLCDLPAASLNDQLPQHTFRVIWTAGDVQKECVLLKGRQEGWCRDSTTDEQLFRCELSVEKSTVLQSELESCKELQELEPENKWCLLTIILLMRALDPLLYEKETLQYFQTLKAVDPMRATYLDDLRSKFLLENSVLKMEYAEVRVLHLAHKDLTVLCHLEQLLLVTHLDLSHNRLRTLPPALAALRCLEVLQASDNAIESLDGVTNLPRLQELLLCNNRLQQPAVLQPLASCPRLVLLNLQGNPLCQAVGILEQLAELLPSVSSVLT
UniProt P49023, whole entry, looked up: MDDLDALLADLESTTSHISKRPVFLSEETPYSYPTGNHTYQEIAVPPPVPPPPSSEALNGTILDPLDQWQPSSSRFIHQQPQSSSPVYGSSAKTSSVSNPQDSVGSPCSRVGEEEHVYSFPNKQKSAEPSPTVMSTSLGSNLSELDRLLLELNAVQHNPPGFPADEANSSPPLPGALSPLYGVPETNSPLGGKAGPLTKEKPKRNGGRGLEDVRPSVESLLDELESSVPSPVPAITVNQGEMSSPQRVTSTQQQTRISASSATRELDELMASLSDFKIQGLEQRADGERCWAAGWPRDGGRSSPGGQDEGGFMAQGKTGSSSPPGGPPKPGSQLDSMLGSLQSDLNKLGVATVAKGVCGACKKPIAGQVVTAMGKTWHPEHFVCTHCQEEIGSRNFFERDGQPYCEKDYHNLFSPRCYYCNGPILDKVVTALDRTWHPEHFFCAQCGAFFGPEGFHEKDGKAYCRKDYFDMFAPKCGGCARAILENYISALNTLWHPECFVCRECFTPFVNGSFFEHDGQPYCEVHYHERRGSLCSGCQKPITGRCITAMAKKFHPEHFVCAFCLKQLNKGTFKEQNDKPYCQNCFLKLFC
UniProt Q6IQ22: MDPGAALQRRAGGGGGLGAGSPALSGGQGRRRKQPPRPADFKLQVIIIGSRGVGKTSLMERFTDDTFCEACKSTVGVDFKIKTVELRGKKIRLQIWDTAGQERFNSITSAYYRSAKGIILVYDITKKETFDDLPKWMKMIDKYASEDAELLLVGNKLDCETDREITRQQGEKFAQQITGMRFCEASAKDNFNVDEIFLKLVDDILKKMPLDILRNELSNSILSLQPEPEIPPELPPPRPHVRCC
UniProt Q5HYI8: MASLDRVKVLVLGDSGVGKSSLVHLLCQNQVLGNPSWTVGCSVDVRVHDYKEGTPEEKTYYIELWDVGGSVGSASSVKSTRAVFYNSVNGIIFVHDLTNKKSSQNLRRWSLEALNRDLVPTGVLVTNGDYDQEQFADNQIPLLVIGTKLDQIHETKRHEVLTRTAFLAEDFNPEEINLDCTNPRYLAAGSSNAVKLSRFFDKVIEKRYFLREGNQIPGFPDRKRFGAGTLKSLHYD
UniProt Q6GYQ0: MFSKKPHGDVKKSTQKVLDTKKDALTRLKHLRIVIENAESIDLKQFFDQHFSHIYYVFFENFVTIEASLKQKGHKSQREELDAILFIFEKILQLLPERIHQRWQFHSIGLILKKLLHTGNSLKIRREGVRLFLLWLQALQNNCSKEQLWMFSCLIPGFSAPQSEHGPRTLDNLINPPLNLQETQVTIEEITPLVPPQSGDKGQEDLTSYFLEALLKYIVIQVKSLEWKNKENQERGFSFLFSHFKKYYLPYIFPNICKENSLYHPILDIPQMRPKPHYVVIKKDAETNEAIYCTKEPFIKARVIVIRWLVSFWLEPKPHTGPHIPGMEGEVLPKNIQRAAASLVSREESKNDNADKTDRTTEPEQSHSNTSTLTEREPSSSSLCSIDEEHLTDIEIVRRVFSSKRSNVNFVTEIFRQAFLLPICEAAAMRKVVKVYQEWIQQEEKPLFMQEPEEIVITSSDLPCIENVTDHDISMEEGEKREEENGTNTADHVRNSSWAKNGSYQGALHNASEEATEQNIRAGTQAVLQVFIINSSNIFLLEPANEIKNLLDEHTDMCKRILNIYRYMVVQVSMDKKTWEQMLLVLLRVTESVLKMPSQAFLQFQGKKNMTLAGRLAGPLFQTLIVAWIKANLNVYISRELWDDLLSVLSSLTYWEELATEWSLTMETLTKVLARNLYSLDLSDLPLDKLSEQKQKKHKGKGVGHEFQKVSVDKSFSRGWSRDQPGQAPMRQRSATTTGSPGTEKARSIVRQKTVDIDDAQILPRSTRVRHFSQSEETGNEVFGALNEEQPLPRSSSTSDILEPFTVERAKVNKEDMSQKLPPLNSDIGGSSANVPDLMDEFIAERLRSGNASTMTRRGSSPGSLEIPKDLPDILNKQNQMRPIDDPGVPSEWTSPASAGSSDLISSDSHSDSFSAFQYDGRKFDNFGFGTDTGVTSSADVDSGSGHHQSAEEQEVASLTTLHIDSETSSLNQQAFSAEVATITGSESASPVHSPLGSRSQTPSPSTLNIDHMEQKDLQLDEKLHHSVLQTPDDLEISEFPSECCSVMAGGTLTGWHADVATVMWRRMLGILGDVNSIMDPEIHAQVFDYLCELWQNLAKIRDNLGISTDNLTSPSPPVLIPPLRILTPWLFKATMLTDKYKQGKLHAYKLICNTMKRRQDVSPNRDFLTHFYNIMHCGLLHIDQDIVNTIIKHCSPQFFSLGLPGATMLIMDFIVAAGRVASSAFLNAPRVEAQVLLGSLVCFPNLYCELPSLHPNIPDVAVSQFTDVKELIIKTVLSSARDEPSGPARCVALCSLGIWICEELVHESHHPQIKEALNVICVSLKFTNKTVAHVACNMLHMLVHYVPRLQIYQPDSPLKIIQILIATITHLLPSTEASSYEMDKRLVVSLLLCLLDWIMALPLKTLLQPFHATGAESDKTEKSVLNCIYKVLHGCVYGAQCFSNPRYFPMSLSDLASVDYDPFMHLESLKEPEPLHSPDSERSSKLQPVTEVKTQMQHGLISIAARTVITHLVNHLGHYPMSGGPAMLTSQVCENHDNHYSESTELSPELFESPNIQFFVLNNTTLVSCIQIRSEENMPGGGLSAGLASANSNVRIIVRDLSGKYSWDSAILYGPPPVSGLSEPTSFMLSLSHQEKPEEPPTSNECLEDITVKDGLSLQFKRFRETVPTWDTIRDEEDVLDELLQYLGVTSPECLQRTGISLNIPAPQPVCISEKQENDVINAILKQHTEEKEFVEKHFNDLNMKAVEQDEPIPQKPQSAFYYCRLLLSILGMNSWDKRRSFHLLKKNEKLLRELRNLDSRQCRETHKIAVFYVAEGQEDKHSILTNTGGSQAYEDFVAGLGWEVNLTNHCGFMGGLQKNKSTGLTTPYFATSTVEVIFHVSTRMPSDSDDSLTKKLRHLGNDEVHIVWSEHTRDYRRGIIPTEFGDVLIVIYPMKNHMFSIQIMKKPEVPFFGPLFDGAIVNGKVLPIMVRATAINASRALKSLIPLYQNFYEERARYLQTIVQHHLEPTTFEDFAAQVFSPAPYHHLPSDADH
UniProt Q13636: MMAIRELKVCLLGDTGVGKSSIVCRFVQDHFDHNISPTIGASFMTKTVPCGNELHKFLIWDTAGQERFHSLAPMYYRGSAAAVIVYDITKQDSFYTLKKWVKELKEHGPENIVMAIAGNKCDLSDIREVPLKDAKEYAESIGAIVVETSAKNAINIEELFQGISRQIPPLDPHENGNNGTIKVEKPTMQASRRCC
UniProt Q9Y4B4: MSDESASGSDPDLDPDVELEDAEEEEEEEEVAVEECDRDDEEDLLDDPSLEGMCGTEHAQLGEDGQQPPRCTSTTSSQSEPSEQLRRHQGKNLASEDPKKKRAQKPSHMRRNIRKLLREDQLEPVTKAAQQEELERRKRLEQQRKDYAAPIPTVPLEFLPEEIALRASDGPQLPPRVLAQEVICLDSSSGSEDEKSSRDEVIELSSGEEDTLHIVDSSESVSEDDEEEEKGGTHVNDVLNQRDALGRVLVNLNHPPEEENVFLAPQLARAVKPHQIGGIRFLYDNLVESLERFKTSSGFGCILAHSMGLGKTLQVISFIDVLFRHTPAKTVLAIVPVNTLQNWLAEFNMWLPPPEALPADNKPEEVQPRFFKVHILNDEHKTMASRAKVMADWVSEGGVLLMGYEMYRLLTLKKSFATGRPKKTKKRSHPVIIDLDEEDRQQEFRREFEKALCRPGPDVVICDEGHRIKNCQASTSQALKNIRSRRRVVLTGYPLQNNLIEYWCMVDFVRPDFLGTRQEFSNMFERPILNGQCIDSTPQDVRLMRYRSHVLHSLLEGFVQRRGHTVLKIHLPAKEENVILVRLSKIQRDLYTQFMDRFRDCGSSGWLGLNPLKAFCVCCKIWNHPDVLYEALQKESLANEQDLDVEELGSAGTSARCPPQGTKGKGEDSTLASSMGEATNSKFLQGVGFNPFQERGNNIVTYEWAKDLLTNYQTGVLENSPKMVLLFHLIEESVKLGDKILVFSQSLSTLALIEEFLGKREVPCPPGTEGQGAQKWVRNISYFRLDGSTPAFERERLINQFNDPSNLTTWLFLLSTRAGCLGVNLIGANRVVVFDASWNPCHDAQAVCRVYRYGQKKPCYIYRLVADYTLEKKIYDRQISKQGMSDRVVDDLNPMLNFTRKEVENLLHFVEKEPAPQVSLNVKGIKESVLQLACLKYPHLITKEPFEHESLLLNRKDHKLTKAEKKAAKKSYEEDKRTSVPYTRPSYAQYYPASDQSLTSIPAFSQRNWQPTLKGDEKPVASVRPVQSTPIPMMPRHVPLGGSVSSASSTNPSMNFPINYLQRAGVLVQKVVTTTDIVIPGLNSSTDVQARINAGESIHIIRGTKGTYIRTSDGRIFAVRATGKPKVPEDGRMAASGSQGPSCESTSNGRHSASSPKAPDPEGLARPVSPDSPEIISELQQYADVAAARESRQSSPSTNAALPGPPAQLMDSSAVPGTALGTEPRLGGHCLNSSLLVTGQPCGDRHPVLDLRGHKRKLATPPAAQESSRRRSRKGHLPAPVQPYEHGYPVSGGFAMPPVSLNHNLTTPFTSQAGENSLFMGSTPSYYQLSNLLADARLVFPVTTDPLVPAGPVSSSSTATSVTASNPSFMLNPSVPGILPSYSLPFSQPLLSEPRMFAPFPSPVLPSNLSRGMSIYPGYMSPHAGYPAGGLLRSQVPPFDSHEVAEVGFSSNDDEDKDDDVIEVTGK
UniProt P20340: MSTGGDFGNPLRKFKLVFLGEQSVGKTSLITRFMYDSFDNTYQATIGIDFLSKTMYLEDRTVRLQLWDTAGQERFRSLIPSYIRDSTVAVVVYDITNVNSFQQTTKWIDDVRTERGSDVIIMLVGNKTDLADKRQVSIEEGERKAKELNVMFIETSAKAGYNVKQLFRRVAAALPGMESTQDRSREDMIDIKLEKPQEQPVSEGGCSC
UniProt O60671: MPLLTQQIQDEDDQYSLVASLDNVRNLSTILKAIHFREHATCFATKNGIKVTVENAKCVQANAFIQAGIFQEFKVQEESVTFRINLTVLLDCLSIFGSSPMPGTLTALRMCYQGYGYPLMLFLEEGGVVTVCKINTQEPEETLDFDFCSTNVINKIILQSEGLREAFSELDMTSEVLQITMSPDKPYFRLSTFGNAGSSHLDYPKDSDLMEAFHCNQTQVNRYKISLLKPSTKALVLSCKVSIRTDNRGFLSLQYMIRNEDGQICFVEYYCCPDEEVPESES
UniProt Q9Y6I8: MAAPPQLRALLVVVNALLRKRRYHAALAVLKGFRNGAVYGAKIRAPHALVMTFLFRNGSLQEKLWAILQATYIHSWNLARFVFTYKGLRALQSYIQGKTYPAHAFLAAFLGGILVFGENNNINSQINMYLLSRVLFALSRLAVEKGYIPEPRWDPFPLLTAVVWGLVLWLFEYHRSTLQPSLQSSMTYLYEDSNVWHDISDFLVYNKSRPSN

Key:
Experiment in all cases: log2 fold change, soluble protein after heating vs DMSO (PISA); higher = thermal stabilisation; K562 lysate, 10 uM; active = over 0.2 and 3.5 SD of the protein, either way, in both replicates (recomputed)
erlotinib = compound: C#Cc1cccc(Nc2ncnc3cc(OCCOC)c(OCCOC)cc23)c1 [erlotinib]
Method in brief: (§1)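 Following dounce homogenisation of K562 pellets in PBS pH 7.4 with 1 mM MgCl2, crude extract at 1 mg/mL protein was incubated for 30 min with 10 μM compound. Aliquots were then heated for 3 min over 48°C-58°C and pooled, NP-40 was added to 0.5% at 4°C, and soluble protein was recovered as the supernatant at 21,000xg for 90 min. Channel-sum-equalised TMTpro 16plex LC-MS/MS quantified this protein. Each value, from duplicates, is a log-two fold change in thermal stability relative to solvent controls.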

[1] = compound: C/C(=N\NC(=O)C1=CC(=CC=C1)S(=O)(=O)N2CCOCC2)/C3=C(C=CC(=C3)Cl)O
Method in brief: as §1

[2] = compound: C1=CC(=CC=C1C2=NC3=C(N2)C=C(C=C3)C(=O)N)OC4=CC=C(C=C4)Cl
Method in brief: as §1

[3] = compound: C1=CC2=C(C=CC(=C2)/C=C\3/C(=O)NC(=NCC4=CC=CS4)S3)N=C1
Method in brief: as §1

[4] = compound: C1=CC2=NC=CN=C2C=C1/C=C/3\C(=O)NC(=O)S3
Method in brief: as §1

[5] = compound: C1=CC=C(C=C1)C2=NC(=C(N2)C3=CC=NC=C3)C4=CC(=C(C=C4)Cl)O
Method in brief: as §1

[6] = compound: C1=CC=C2C(=C1)C3=NNC4=CC=CC(=C43)C2=O
Method in brief: as §1

[7] = compound: C1CCN(C1)C(=O)NC2=CC=CC(=C2)NC3=NC=C(C(=N3)NCCC4=CN=CN4)Br
Method in brief: as §1

[8] = compound: C1CN(CCC1(CC2=CC=C(C=C2)Cl)N)C3=NC=NC4=C3C=CN4
Method in brief: as §1

IRAK-1-4 Inhibitor I = compound: C1COCCN1CCN2C3=CC=CC=C3N=C2NC(=O)C4=CC(=CC=C4)[N+](=O)[O-] [IRAK-1-4 Inhibitor I]
Method in brief: as §1

Measured: log2 fold change

RAB11FIP1 (UniProt Q6WKZ4)
inactive: erlotinib -0.023 | [1] -0.097 | [2] -0.027 | [3] 0.029 | [4] -0.024 | [5] -0.034 | [6] -0.07 | [7] -0.011 | [8] 0.019 | IRAK-1-4 Inhibitor I -0.024

RAB5B (UniProt P61020)
inactive: erlotinib 0.019 | [1] -0.128 | [2] 0.001 | [3] 0.013 | [4] -0.029 | [5] 0.015 | [6] 0.006 | [7] 0.027 | [8] 0.015 | IRAK-1-4 Inhibitor I 0.004

RAB14 (UniProt P61106)
inactive: erlotinib -0.025 | [1] 0.001 | [2] 0 | [3] 0.002 | [4] -0.045 | [5] -0.011 | [6] -0.005 | [7] -0.026 | [8] 0.012 | IRAK-1-4 Inhibitor I 0.024

RAB3GAP1 (UniProt Q15042)
inactive: erlotinib 0.013 | [1] -0.049 | [2] -0.007 | [3] 0.016 | [4] 0.005 | [5] 0.011 | [6] -0.034 | [7] -0.006 | [8] -0.016 | IRAK-1-4 Inhibitor I -0.006

2 entries picked at random from those above, as already listed:
RAB3GAP1 (UniProt Q15042)
inactive: erlotinib 0.013 | [1] -0.049 | [2] -0.007 | [3] 0.016 | [4] 0.005 | [5] 0.011 | [6] -0.034 | [7] -0.006 | [8] -0.016 | IRAK-1-4 Inhibitor I -0.006

RAB5B (UniProt P61020)
inactive: erlotinib 0.019 | [1] -0.128 | [2] 0.001 | [3] 0.013 | [4] -0.029 | [5] 0.015 | [6] 0.006 | [7] 0.027 | [8] 0.015 | IRAK-1-4 Inhibitor I 0.004

More records follow.

RAB7A (UniProt P51149)
inactive: erlotinib 0 | [1] -0.029 | [2] 0.032 | [3] -0.014 | [4] -0.009 | [5] -0.006 | [6] 0.006 | [7] 0.033 | [8] 0.027 | IRAK-1-4 Inhibitor I 0.025

RABGGTA (UniProt Q92696)
inactive: erlotinib 0.01 | [1] 0.083 | [2] 0.01 | [3] -0.016 | [4] 0.005 | [5] -0.012 | [6] -0.02 | [7] -0.009 | [8] 0.035 | IRAK-1-4 Inhibitor I 0.023

PXN isoform 3 (UniProt P49023)
inactive: erlotinib 0.021 | [1] -0.038 | [2] 0.041 | [3] 0.013 | [4] 0.007 | [5] 0.014 | [6] 0.028 | [7] -0.058 | [8] 0.025 | IRAK-1-4 Inhibitor I -0.004

QRICH1 (UniProt Q2TAL8)
inactive: erlotinib 0.022 | [1] 0.018 | [2] 0.006 | [3] 0.032 | [4] 0.01 | [5] 0.009 | [6] 0.001 | [7] -0.026 | [8] 0.016 | IRAK-1-4 Inhibitor I -0.029

RAB12 (UniProt Q6IQ22)
inactive: erlotinib -0.04 | [1] 0.253 | [2] -0.026 | [3] -0.007 | [4] 0.001 | [5] -0.024 | [6] -0.041 | [7] -0.019 | [8] 0.024 | IRAK-1-4 Inhibitor I -0.026

RABL3 (UniProt Q5HYI8)
active: erlotinib 0.706 | [5] 0.96
inactive: [1] -0.019 | [2] -0.025 | [3] 0.011 | [4] 0.008 | [6] -0.041 | [7] 0.015 | [8] 0.017 | IRAK-1-4 Inhibitor I 0.48

RAPGEF4 (UniProt Q8WZA2)
inactive: erlotinib 0.181 | [1] 0.057 | [2] 0.049 | [3] -0.016 | [4] -0.019 | [5] -0.092 | [6] -0.195 | [7] -0.043 | [8] 0.12 | IRAK-1-4 Inhibitor I 0.184

RAB5C isoform 2 (UniProt P51148)
inactive: erlotinib -0.023 | [1] -0.022 | [2] 0.031 | [3] 0 | [4] -0.006 | [5] 0.005 | [6] -0.026 | [7] 0.02 | [8] 0.01 | IRAK-1-4 Inhibitor I 0.021

RAB28 (UniProt P51157)
inactive: erlotinib 0.088 | [1] -0.126 | [2] -0.042 | [3] -0.112 | [4] 0.045 | [5] 0.071 | [6] 0.13 | [7] -0.06 | [8] 0.103 | IRAK-1-4 Inhibitor I 0

RAP1B (UniProt F5GZG1)
inactive: erlotinib -0.028 | [1] 0.332 | [2] 0.101 | [3] -0.048 | [4] -0.206 | [6] -0.08 | [7] -0.081 | [8] 0.04

RABGAP1 (UniProt Q9Y3P9)
inactive: erlotinib 0.003 | [1] 0.048 | [2] 0.012 | [3] 0.024 | [4] 0.007 | [5] 0 | [6] -0.018 | [7] 0.017 | [8] -0.03 | IRAK-1-4 Inhibitor I 0.008

RANBP2 (UniProt P49792)
inactive: erlotinib 0.017 | [1] 0.014 | [2] -0.004 | [3] -0.011 | [4] -0.012 | [5] -0.004 | [6] -0.038 | [7] -0.001 | [8] -0.007 | IRAK-1-4 Inhibitor I -0.019

RAP2C (UniProt Q9Y3L5)
inactive: erlotinib -0.056 | [1] -0.087 | [2] -0.07 | [3] 0.008 | [4] -0.008 | [5] -0.024 | [6] -0.07 | [7] 0.005 | [8] 0.019 | IRAK-1-4 Inhibitor I -0.021

RAB33B (UniProt Q9H082)
inactive: erlotinib -0.096 | [1] 0 | [2] 0.013 | [3] -0.042 | [4] -0.075 | [5] -0.043 | [6] -0.252 | [7] -0.01 | [8] 0.025 | IRAK-1-4 Inhibitor I 0.041

RALGAPA1 isoform 6 (UniProt Q6GYQ0)
inactive: erlotinib 0.056 | [1] -0.093 | [2] 0.098 | [3] 0.065 | [4] -0.105 | [5] -0.064 | [6] -0.015 | [7] -0.042 | [8] 0.031 | IRAK-1-4 Inhibitor I 0.004

RAB31 (UniProt Q13636)
inactive: erlotinib 0.001 | [1] 0.036 | [2] 0.027 | [3] 0.039 | [4] 0.027 | [5] 0.013 | [6] -0.059 | [7] -0.047 | [8] -0.02 | IRAK-1-4 Inhibitor I -0.015

RANBP17 (UniProt Q9H2T7)
inactive: erlotinib 0.053 | [1] -0.128 | [2] -0.048 | [3] -0.076 | [4] 0.066 | [5] 0.035 | [6] -0.024 | [7] 0.083 | [8] 0.035 | IRAK-1-4 Inhibitor I 0.077

RAD54L2 (UniProt Q9Y4B4)
inactive: erlotinib 0.186 | [1] -0.176 | [2] -0.103 | [3] -0.035 | [4] -0.135 | [6] 0.002 | [7] -0.046 | [8] 0.055

RAB3IP (UniProt Q96QF0)
inactive: erlotinib 0.003 | [1] 0.03 | [2] -0.014 | [3] 0.133 | [4] 0.029 | [5] 0.011 | [6] 0.048 | [7] 0.082 | [8] 0.191 | IRAK-1-4 Inhibitor I -0.001

RAP1GAP isoform 4 (UniProt P47736)
inactive: erlotinib 0.087 | [1] -0.028 | [2] -0.011 | [3] -0.018 | [4] -0.019 | [5] -0.012 | [6] -0.005 | [7] 0.02 | [8] 0.056 | IRAK-1-4 Inhibitor I 0.041

RAB6A isoform 4 (UniProt P20340)
inactive: erlotinib -0.001 | [1] -0.15 | [2] 0.064 | [3] 0.06 | [4] 0.008 | [5] -0.023 | [6] -0.073 | [7] 0.003 | [8] -0.002 | IRAK-1-4 Inhibitor I 0.018

PYGL (UniProt P06737)
inactive: erlotinib -0.03 | [1] 0.056 | [2] -0.012 | [3] -0.027 | [4] -0.011 | [5] -0.001 | [6] 0.086 | [7] 0.007 | [8] 0.015 | IRAK-1-4 Inhibitor I -0.002

RAD1 (UniProt O60671)
inactive: erlotinib 0.054 | [1] 0.034 | [2] -0.014 | [3] -0.023 | [4] 0.025 | [5] 0.027 | [6] -0.016 | [7] -0.008 | [8] 0.058 | IRAK-1-4 Inhibitor I -0.003

RAD51C (UniProt O43502)
inactive: erlotinib 0 | [1] -0.053 | [2] 0.023 | [3] -0.074 | [4] -0.003 | [5] 0.001 | [6] -0.004 | [7] 0.017 | [8] 0.02 | IRAK-1-4 Inhibitor I -0.051

RANGAP1 (UniProt P46060)
inactive: erlotinib 0.014 | [1] -0.005 | [2] -0.011 | [3] 0.003 | [4] 0.005 | [5] 0.008 | [6] 0.022 | [7] 0 | [8] -0.008 | IRAK-1-4 Inhibitor I 0.001

PXMP4 (UniProt Q9Y6I8)
inactive: erlotinib 0.024 | [1] 0.068 | [2] 0.084 | [3] -0.053 | [4] 0.013 | [5] 0.053 | [6] -0.038 | [7] 0.043 | [8] 0.022 | IRAK-1-4 Inhibitor I 0.016
